These are yes or no findings as the source states them, for the method shown. Binding seen in cells or lysates may run through a third protein. Some binding calls cover weakened binding; strength is not graded here. Tags and fused reporters may be left off the sequences shown.

Chains of the proteins cited; added tags and fusions are not shown.
UniProt Q13490: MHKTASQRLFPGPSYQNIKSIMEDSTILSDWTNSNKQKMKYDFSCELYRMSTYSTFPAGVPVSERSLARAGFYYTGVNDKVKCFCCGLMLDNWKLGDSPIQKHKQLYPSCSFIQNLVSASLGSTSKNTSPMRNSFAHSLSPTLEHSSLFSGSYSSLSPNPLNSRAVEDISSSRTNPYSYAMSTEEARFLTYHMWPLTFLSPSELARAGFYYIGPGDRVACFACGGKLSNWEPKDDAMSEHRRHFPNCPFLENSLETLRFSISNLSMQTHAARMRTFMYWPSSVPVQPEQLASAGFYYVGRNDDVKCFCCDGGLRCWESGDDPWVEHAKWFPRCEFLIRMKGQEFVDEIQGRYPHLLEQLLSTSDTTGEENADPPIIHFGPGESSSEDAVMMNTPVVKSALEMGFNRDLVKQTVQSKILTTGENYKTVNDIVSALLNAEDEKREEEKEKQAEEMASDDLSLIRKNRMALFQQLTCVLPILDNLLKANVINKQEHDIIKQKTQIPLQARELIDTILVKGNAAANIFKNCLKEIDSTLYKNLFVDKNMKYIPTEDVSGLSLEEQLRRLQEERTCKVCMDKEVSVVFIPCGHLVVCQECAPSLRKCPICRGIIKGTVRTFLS

The target of experiment [1] is T1, myc-epitope tagged TRAF2 (293T cell lysate) (UniProt Q12933).
T1 sequence (looked up): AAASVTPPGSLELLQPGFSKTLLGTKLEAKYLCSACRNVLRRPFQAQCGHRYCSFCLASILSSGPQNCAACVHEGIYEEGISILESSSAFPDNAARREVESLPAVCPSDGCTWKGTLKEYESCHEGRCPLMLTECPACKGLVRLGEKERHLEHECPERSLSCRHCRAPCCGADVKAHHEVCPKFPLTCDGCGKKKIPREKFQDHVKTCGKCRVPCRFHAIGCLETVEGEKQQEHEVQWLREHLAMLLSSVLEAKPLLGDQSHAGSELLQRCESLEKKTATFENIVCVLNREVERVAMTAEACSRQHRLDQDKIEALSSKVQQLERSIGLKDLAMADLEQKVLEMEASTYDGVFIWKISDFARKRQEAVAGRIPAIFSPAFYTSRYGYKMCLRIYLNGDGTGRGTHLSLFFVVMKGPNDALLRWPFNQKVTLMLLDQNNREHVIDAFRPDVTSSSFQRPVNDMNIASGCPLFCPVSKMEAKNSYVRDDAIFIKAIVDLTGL
Description: GST pull-down from 293T lysates on GST-XAF-1 beads, Western blot with anti-c-myc 9E10; indirect interactions not excluded.

In experiment [2] the target is myc-epitope tagged HIAP-2 (293T cell lysate) (human) (UniProt Q13490). The description is as above.
For experiment [3], the target named is T2, GST-XAF-1 fusion protein (Schistosoma japonicum; human) (UniProt Q6GPH4).
T2 sequence: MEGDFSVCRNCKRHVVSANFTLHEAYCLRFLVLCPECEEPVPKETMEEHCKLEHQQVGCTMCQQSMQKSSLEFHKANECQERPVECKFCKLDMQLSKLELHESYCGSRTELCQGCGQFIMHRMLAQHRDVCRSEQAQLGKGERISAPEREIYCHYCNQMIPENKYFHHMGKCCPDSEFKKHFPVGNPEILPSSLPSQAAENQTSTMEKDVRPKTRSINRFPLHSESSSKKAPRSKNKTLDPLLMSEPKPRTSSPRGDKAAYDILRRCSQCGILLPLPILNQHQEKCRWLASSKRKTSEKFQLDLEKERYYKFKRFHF
Put plainly: pull-down of 35S-labeled in vitro translated protein on GST-XAF-1 beads, cell-free, SDS-PAGE and autoradiography.

B1: GST-XAF-1 fusion protein (protein, not shown: a dimerising Fc or GST)
chain: MEGDFSVCRNCKRHVVSANFTLHEAYCLRFLVLCPECEEPVPKETMEEHCKLEHQQVGCTMCQQSMQKSSLEFHKANECQERPVECKFCKLDMQLSKLELHESYCGSRTELCQGCGQFIMHRMLAQHRDVCRSEQAQLGKGERISAPEREIYCHYCNQMIPENKYFHHMGKCCPDSEFKKHFPVGNPEILPSSLPSQAAENQTSTMEKDVRPKTRSINRFPLHSESSSKKAPRSKNKTLDPLLMSEPKPRTSSPRGDKAAYDILRRCSQCGILLPLPILNQHQEKCRWLASSKRKTSEKFQLDLEKERYYKFKRFHF
Regarding B1, the binding result in experiment [1] and in experiment [2] was “binds” throughout.

B2: 35S-labeled in vitro translated TRAF2 (protein, UniProt Q12933 2-501, looked up, not shown: small tags and cut ends)
chain: AAASVTPPGSLELLQPGFSKTLLGTKLEAKYLCSACRNVLRRPFQAQCGHRYCSFCLASILSSGPQNCAACVHEGIYEEGISILESSSAFPDNAARREVESLPAVCPSDGCTWKGTLKEYESCHEGRCPLMLTECPACKGLVRLGEKERHLEHECPERSLSCRHCRAPCCGADVKAHHEVCPKFPLTCDGCGKKKIPREKFQDHVKTCGKCRVPCRFHAIGCLETVEGEKQQEHEVQWLREHLAMLLSSVLEAKPLLGDQSHAGSELLQRCESLEKKTATFENIVCVLNREVERVAMTAEACSRQHRLDQDKIEALSSKVQQLERSIGLKDLAMADLEQKVLEMEASTYDGVFIWKISDFARKRQEAVAGRIPAIFSPAFYTSRYGYKMCLRIYLNGDGTGRGTHLSLFFVVMKGPNDALLRWPFNQKVTLMLLDQNNREHVIDAFRPDVTSSSFQRPVNDMNIASGCPLFCPVSKMEAKNSYVRDDAIFIKAIVDLTGL
modifications: 35S labeled methionine
For the molecule B2, the binding entry in experiment [3] is reported as “binds”.

The values are drawn from patent US6946544.
